# Source: publication doi:10.1101/2023.04.15.537002
# No constants are given. Whether binding was seen depends on the method and setting. Binding seen in cells or lysates may run through a third protein. Some binding calls cover weakened binding; strength is not graded here.
# B1: native 14-3-3[…] from RBC lysate (protein, UniProt Q04917 1-246)
# chain: MGDREQLLQRARLAEQAERYDDMASAMKAVTELNEPLSNEDRNLLSVAYKNVVGARRSSWRVISSIEQKTMADGNEKKLEKVKAYREKIEKELETVCNDVLSLLDKFLIKNCNDFQYESKVFYLKMKGDYYRYLAEVASGEKKNSVVEASEAAYKEAFEISKEQMQPTHPIRLGLALNFSVFYYEIQNAPEQACLLAKQAFDDAIAELDTLNEDSYKDSTLIMQLLRDNLTLWTSDQQDEEAGEGN
# Biological target: T1, recombinant PfRhopH3 C-terminal fragment (PfRhopH3C; 617-865 aa) (Plasmodium falciparum) (UniProt Q8I395)
# T1 sequence: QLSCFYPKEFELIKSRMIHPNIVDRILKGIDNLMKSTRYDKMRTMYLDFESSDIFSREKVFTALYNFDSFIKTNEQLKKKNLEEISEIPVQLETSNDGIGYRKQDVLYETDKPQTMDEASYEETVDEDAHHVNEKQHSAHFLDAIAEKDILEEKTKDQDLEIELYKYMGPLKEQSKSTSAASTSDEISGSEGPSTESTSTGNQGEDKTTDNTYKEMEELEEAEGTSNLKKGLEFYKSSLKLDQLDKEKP
# Test: pull-down
binder,measurement,value
B1,binding,binds
